Measured values from article doi:10.1101/2022.07.18.500419.
Results are given in words; binding and its absence hold for the method and conditions named. Binding calls can cover weak binding; strength is not graded here.

Sequences of proteins named here, by UniProt entry; tags and fusion partners are left off. A change or cut given only in a name is not applied to a line headed by its entry.
UniProt P35613: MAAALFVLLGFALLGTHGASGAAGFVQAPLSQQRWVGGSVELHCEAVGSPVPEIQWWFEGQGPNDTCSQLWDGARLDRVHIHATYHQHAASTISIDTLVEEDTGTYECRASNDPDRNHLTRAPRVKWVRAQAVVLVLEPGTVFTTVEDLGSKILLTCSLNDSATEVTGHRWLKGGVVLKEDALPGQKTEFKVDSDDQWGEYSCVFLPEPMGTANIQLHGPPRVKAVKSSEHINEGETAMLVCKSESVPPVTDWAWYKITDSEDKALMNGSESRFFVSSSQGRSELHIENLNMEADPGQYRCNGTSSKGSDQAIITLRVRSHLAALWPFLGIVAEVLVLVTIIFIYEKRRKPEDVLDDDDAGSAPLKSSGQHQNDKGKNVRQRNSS

Biological target: Basigin (human (endogenous in RBCs)) (UniProt P35613)
Assay: native gel or EMSA

Row | Substance | binding
1 | CD44 (from UniProt P16070-12) | binds
2 | β2-adrenergic receptor (from UniProt P07550 1-413) | binds
